Values of other authors, collected in patent US20140066620A1, “PYRIMIDINE SUBSTITUTED PURINE DERIVATIVES” (VERASTEM, INC., priority 2007, published 2014).
At least one structure is not confirmed: it was looked up by name or label, or the drawing left a doubt.

Test system: sixty tumor cell lines
Details: NCI; cited from earlier work

In the case of `CO[C@H]1C[C@@H]2CC[C@@H](C)[C@@](O)(O2)C(=O)C(=O)N2CCCC[C@H]2C(=O)O[C@H]([C@H](C)C[C@@H]2CC[C@@H](O)[C@H](OC)C2)CC(=O)[C@H](C)/C=C(\C)[C@@H](O)[C@@H](OC)C(=O)[C@H](C)C[C@H](C)/C=C/C=C/C=C/1C` [rapamycin], the “general sensitivity to the drug (dose)” value is given as “under 2000 ng/ml”.
